For at least one entry, the source does not settle the construct or the ends of the probe.
Tested on: PuCRZ1 (Polyporus umbellatus)
Experiment: EMSA
Settings: 1 ug protein, 7.5 nM probe; EMSA: 1 ug 6xHis-PuCRZ1, 7.5 nM biotin probe, Beyotime chemiluminescent EMSA kit binding buffer (salt and pH not stated), 30 min, room temperature, 6% native PAGE; recombinant protein; protein details: 6xHis (pET32a(+) vector); label: 5'-biotin on both strands

Sequence	binding result
CAATGGCGACGTCAATGGCGACGTCAATGGCGACGT (double strand) [G10-biotin-2 (PuG10 promoter probe)]	binds
GGTCGGCGCTGGGGTCGGCGCTGGGGTCGGCGCTGG (double strand) [G11-biotin-2 (PuG11 promoter probe)]	binds
